Reference: PMC12399595
Results are given in words; binding and its absence hold for the method and conditions named. Binding seen in cells or lysates may run through a third protein. Some binding calls cover weakened binding; strength is not graded here.

The chains behind the UniProt entries cited, without tags or fusion partners. Where a name states a change or a piece, a line headed by the entry shows the natural chain unless it says otherwise.
UniProt P98086: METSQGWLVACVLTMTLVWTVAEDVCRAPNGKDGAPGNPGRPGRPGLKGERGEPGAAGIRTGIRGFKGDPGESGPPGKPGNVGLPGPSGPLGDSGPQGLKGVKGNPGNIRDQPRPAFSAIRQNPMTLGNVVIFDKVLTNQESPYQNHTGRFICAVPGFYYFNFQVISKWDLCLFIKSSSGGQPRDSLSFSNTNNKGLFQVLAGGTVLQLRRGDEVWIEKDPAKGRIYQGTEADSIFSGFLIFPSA

Molecular target: T1, potassium chloride co-transporter 2 (mouse (endogenous in forebrain)) (UniProt Q91V14)
T1 sequence: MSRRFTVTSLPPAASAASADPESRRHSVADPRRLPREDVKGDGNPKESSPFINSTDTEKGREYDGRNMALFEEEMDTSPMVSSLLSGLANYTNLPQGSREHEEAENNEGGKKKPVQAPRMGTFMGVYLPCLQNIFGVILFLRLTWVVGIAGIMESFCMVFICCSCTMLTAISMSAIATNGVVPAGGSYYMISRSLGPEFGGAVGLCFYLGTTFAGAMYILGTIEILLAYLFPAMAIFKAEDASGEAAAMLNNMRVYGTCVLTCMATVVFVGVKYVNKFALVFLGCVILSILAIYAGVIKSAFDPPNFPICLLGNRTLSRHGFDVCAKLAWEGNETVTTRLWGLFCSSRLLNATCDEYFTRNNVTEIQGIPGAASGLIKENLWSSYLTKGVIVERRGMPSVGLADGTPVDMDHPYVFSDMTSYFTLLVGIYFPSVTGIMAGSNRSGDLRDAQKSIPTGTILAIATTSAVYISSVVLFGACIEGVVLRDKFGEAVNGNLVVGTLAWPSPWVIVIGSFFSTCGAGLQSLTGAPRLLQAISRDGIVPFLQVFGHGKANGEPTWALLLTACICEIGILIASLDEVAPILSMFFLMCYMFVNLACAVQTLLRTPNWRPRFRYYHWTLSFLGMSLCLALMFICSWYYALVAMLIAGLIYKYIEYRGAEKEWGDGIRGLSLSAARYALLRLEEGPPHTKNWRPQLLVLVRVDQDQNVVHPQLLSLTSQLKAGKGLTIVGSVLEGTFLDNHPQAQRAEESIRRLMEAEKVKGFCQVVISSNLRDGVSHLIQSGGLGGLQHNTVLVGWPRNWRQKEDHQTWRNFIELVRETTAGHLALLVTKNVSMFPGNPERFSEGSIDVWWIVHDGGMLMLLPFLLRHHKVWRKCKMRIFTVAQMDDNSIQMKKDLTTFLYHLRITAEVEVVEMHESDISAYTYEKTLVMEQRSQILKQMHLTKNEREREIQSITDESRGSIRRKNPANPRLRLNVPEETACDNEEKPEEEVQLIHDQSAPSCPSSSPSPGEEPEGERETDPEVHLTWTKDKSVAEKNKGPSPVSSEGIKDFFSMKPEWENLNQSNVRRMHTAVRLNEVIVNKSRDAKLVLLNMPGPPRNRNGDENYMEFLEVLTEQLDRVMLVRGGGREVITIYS
Experiment: co-IP; KCC2 immunoprecipitated (anti-KCC2 cross-linked to protein G dynabeads, overnight at 4°C) from forebrain plasma membrane fractions of 8-12-week-old mice in Triton lysis buffer (150 mM NaCl, 10 mM Tris, 0.5% Triton X-100, pH 7.5); soft elution; resolved by BN-PAGE and blotted for C1q; n = 1 cohort of 7 animals merged

- binding: binds
Substance: complement C1q (from UniProt P98086 23-245; P14106 26-253; Q02105 30-246) (complex)
